PubChem BioAssay (NCATS)
The shares of active, inactive and inconclusive entries below differ from those in the screen. Potencies of inconclusive entries are doubtful fits and often do not repeat. Calls of active or inactive are those of the source. Calls follow the shape of the dose curve; as a rule, active = well fitted cell-killing curve with a large enough effect; inconclusive = small, poorly fitted or top-dose-only effect, or effect the other way; inactive = no such curve, though single readings can be large or run the other way.

Experiments:
[1] = Quantitative High-Throughput drug screen in 47 multiple myeloma cell lines against the NCATS MIPE library collection: FR4_PLB cell viability assay (AID 1918924; also: nearly all actives have a fitted effect of over 35% in size); conditions: FR4_PLB myeloma cells viability, CellTiter-Glo ATP, 48 h; viability (% of DMSO control): at 45.8 µM (top of the series)
Outline: (§1)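 Inhibition of cell viability is measured here. Each line was plated at 500 cells per well, treated with MIPE 4.0 drugs, kept 48 hours at 37C, then assayed for ATP content by CellTiter-Glo luminescence.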

[2] = Quantitative High-Throughput drug screen in 47 multiple myeloma cell lines against the NCATS MIPE library collection: AMO1_DSMZ cell viability assay (AID 1918927; also: nearly all actives have a fitted effect of over 30% in size)
Outline: (§2)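 Myeloma cell lines, 500 cells per well, exposed to MIPE 4.0 library compounds for 48 h at 37C, 5% CO2. Viability from ATP by CellTiter-Glo luminescence; normalised to DMSO (100%) and media-only (0%) wells.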

[3] = Quantitative High-Throughput drug screen in 47 multiple myeloma cell lines against the NCATS MIPE library collection: ARD_JJKsccE7 cell viability assay (AID 1918929)
Outline: as §2

[4] = Quantitative High-Throughput drug screen in 47 multiple myeloma cell lines against the NCATS MIPE library collection: Karpas417_ECACC cell viability assay (AID 1918961); conditions: Karpas417 myeloma viability, CellTiter-Glo ATP luminescence, 48 h; viability (% of DMSO): at 45.8 µM (top of the series) unless noted
Outline: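 qHTS of the MIPE 4.0 collection: 500 myeloma cells/well, 48 h drug exposure at 37C in 5% CO2, then CellTiter-Glo for 5 min at room temperature before luminescence reading.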

[5] = Quantitative High-Throughput drug screen in 47 multiple myeloma cell lines against the NCATS MIPE library collection: KHM11_PLB cell viability assay (AID 1918962); conditions: KHM11 myeloma cell viability, CellTiter-Glo ATP luminescence, 48 h; viability, % of DMSO control: at 45.8 µM (top of the series); also: nearly all actives have a fitted effect of over 35% in size
Outline: as §1

[6] = Quantitative High-Throughput drug screen in 47 multiple myeloma cell lines against the NCATS MIPE library collection: EJM_DSMZ cell viability assay (AID 1918926; also: nearly all actives have a fitted effect of over 30% in size); conditions: EJM myeloma cell viability, CellTiter-Glo ATP, 48 h; viability, % of control: at 45.8 µM (top of the series)
Outline: as §2

[7] = Quantitative High-Throughput drug screen in 47 multiple myeloma cell lines against the NCATS MIPE library collection: ARP1_JJKsccF8 cell viability assay (AID 1918928; also: nearly all actives have a fitted effect of over 40% in size); conditions: ARP1 myeloma cells viability, CellTiter-Glo ATP, 48 h; viability: at 45.8 µM (top of the series)
Outline: (§3)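 Luminescence from CellTiter-Glo, taken after 5 min at room temperature, reports cellular ATP as viability. Cells (500 per well) had been treated 48 h at 37 °C with MIPE 4.0 compounds, scaled between DMSO and medium-only controls.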

[8] = Quantitative High-Throughput drug screen in 47 multiple myeloma cell lines against the NCATS MIPE library collection: KMM1_JCRB cell viability assay (AID 1918960); conditions: KMM1 myeloma viability, CellTiter-Glo ATP luminescence, 48 h; viability (% of DMSO): at 45.8 µM (top of the series); also: nearly all actives have a fitted effect of over 30% in size;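 as to viability (% of DMSO): 100% = DMSO-treated cells and 0% = medium-only wells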
Outline: as §3

[9] = Quantitative High-Throughput drug screen in 47 multiple myeloma cell lines against the NCATS MIPE library collection: Karpas620_DSMZ cell viability assay (AID 1918959); also: nearly all actives have a fitted effect of over 30% in size
Outline: as §1
Potency is read from the fitted curve at half-maximal effect.

SMILES | Potency [1] | Potency [2] | Potency [3] | Potency [4] | Potency [5] | Potency [6] | Potency [7] | Potency [8] | Potency [9] | viability (% of DMSO) [4]
COc1nc(-c2ccc3c(c2)OCO3)n(-c2ccc(NC(=O)CSc3ccccc3)cc2)n1 | inactive | inconclusive: 0.0296 µM [cytotoxic, full curve, poor fit] | inactive | inactive | inactive | – | – | – | – | –
Cc1ccc(C(C)(O)c2nc3ccccc3s2)c(C)c1 (stereo not given) | inconclusive: 20.9 µM [rising, partial curve] | – | – | inactive | inconclusive: 0.0015 µM [rising, full curve, poor fit] | inconclusive: 0.0017 µM [cytotoxic, full curve, poor fit] | inactive | inactive | – | –
O=C(O)c1ccc(-c2cc3cccnc3c(-c3ccc4nonc4c3)n2)cc1 | inconclusive: 37.2 µM [cytotoxic, partial curve, poor fit] | inconclusive: 33.2 µM [cytotoxic, single point] | inconclusive: 37.2 µM [cytotoxic, single point] | inconclusive: 33.2 µM [cytotoxic, single point] | – | – | inconclusive: 26.4 µM [cytotoxic, partial curve, poor fit] | inconclusive: 29.6 µM [cytotoxic, single point] | inconclusive: 29.6 µM [cytotoxic, single point] | –
c1coc(CNc2ncnc3nc[nH]c23)c1 | inconclusive: 4.69 µM [cytotoxic, partial curve, poor fit] | inactive | inactive | inconclusive: 0.003 µM [cytotoxic, full curve, poor fit] | inactive | – | – | – | inconclusive: 5.9 µM [cytotoxic, partial curve, poor fit] | –
CCN(CC)CCCC(C)Nc1nc(C)cc(Nc2ccc3nc(C)cc(N)c3c2)n1 (stereo not given) | inconclusive: 46.9 µM [cytotoxic, partial curve, poor fit] | – | – | inconclusive: 3.32 µM [cytotoxic, full curve, poor fit] | – | inconclusive: 37.2 µM [cytotoxic, single point] | inconclusive: 23.5 µM [cytotoxic, single point] | – | – | –
CN[C@@H](C)C(=O)N[C@H]1CCCC[C@H]2CC[C@@H](C(=O)N[C@@H](c3ccccc3)c3cn(CCCCc4ccc(CCCCn5cc([C@@H](NC(=O)[C@@H]6CC[C@@H]7CCCC[C@H](NC(=O)[C@H](C)NC)C(=O)N76)c6ccccc6)nn5)cc4)nn3)N2C1=O | inconclusive: 37.2 µM [cytotoxic, single point] | inconclusive: 0.132 µM [cytotoxic, full curve, poor fit] | inconclusive: 0.0012 µM [rising, full curve, poor fit] | inconclusive: 0.235 µM [cytotoxic, full curve, poor fit] | active: 5.26 µM | – | inconclusive: 0.209 µM [rising, full curve, poor fit] | inconclusive: 16.6 µM [cytotoxic, partial curve, poor fit] | – | –
C=CCc1ccc(O)c(-c2ccc(O)c(CC=C)c2)c1 | inconclusive: 33.2 µM [cytotoxic, partial curve] | – | inconclusive: 37.2 µM [cytotoxic, single point] | inconclusive: 4.18 µM [cytotoxic, partial curve, poor fit] | inconclusive: 37.2 µM [cytotoxic, partial curve, poor fit] | – | inconclusive: 14.8 µM [cytotoxic, partial curve] | inconclusive: 26.4 µM [cytotoxic, single point] | active: 26.4 µM | –
COc1ccc(-c2oc3c(CC=C(C)C)c(OC4O[C@H](CO)[C@@H](O)[C@H](O)[C@@H]4O)cc(O)c3c(=O)c2OC2O[C@@H](C)[C@H](O)[C@@H](O)[C@@H]2O)cc1 (stereo not given in full) | inconclusive: 33.2 µM [cytotoxic, single point] | – | – | active: 10.5 µM | inconclusive: 37.2 µM [cytotoxic, single point] | inconclusive: 29.6 µM [cytotoxic, single point] | – | – | – | –
O=C1N(c2ccccc2)c2ccccc2C1(Cc1ccncc1)Cc1ccncc1 | inconclusive: 37.2 µM [cytotoxic, single point] | – | inconclusive: 6.62 µM [rising, single point] | inconclusive: 37.2 µM [rising, partial curve, poor fit] | inactive | inconclusive: 26.4 µM [cytotoxic, single point] | – | inactive | – | –
NC[C@@H]1O[C@@H](O[C@H]2[C@@H](O)[C@H](O[C@@H]3[C@@H](O)[C@@H](N)C[C@H](N)[C@H]3O[C@H]3O[C@H](CN)[C@@H](O)[C@@H](O)[C@H]3N)O[C@H]2CO)[C@H](N)[C@@H](O)[C@@H]1O | inactive | inactive | – | inconclusive: 14.8 µM [rising, partial curve, poor fit] | inactive | – | – | – | – | –
COc1cccc([C@@H](C)NCCCc2ccccc2Cl)c1 | inconclusive: 0.0026 µM [rising, full curve, poor fit] | inconclusive: 37.2 µM [cytotoxic, single point] | inconclusive: 37.2 µM [cytotoxic, single point] | inconclusive: 10.5 µM [cytotoxic, partial curve, poor fit] | inactive | – | inactive | inconclusive: 33.2 µM [cytotoxic, single point] | inconclusive: 37.2 µM [cytotoxic, single point] | –
COc1cc(O)c2c(c1)C(=O)c1cc(C)cc(O)c1C2=O | inconclusive: 0.0115 µM [cytotoxic, full curve, poor fit] | inconclusive: 0.0102 µM [cytotoxic, full curve, poor fit] | inactive | inactive | inactive | – | – | inactive | – | –
CCCCCCCCCCCCCC(=O)N[C@H](CO)[C@H](O)c1ccc([N+](=O)[O-])cc1 | inconclusive: 26.4 µM [cytotoxic, single point] | – | – | – | inconclusive: 37.2 µM [cytotoxic, single point] | inconclusive: 20.9 µM [cytotoxic, partial curve, poor fit] | inconclusive: 26.4 µM [cytotoxic, single point] | active: 20.9 µM | – | –
NC(=O)c1ccc(I)c([N+](=O)[O-])c1 | inactive | inconclusive: 13.2 µM [cytotoxic, partial curve] | – | inconclusive: 0.003 µM [cytotoxic, full curve, poor fit] | inconclusive: 37.2 µM [cytotoxic, single point] | – | inactive | – | inconclusive: 33.2 µM [cytotoxic, partial curve, poor fit] | –
CC(COc1ccccc1)N(CCCl)Cc1ccccc1 (stereo not given) | inconclusive: 26.4 µM [cytotoxic, single point] | – | – | – | inconclusive: 4.18 µM [rising, partial curve] | inconclusive: 37.2 µM [cytotoxic, single point] | inactive | – | inconclusive: 20.9 µM [cytotoxic, partial curve, poor fit] | inconclusive: 57.6% [cytotoxic]
O=C(NC(Cc1cc(=O)[nH]c2ccccc12)C(=O)O)c1ccc(Cl)cc1 (stereo not given) | inactive | inconclusive: 0.0105 µM [rising, full curve, poor fit] | – | inactive | inconclusive: 0.118 µM [rising, full curve, poor fit] | – | – | inconclusive: 0.0235 µM [rising, full curve, poor fit] | inconclusive: 0.001 µM | –
Cc1cc(C(=O)N2CCN(c3cccc(Cl)c3)CC2)n(-c2ccccc2)n1 | active: 0.148 µM | – | – | inconclusive: 18.7 µM [cytotoxic, partial curve, poor fit] | – | inconclusive: 14.8 µM [cytotoxic, partial curve] | active: 0.59 µM | – | – | –
C#C[C@]1(O)CC[C@H]2[C@H]3CCc4cc(OC)ccc4[C@H]3CC[C@@]21C | inconclusive: 37.2 µM [cytotoxic, single point] | – | – | inconclusive: 0.0047 µM [rising, full curve, poor fit] | active: 18.7 µM | active: 13.2 µM | inactive | inconclusive: 23.5 µM [cytotoxic, partial curve] | inconclusive: 33.2 µM [cytotoxic, single point] | –
Nc1ncnc2c1ncn2[C@@H]1O[C@H](CO)C[C@@H]1O | inconclusive: 1.18 µM [cytotoxic, partial curve, poor fit] | inactive | inactive | inactive | inconclusive: 2.09 µM [cytotoxic, partial curve, poor fit] | – | – | – | – | –
CCN(C(=O)c1c(O)c2c(Cl)cccc2n(C)c1=O)c1ccccc1 | inactive | inconclusive: 26.4 µM [cytotoxic, partial curve, poor fit] | inconclusive: 11.8 µM [rising, single point] | – | inconclusive: 0.418 µM [rising, full curve] | – | – | inconclusive: 18.7 µM [cytotoxic, partial curve] | – | active: 104%
O=c1cc(N2CCOCC2)oc2c(-c3cccc4c3sc3ccccc34)cccc12 | active: 20.9 µM | – | – | – | active: 5.9 µM | inconclusive: 26.4 µM [cytotoxic, single point] | inconclusive: 6.62 µM [cytotoxic, partial curve, poor fit] | – | – | –
CO[C@H]1/C=C\O[C@@]2(C)Oc3c(C)c(O)c4c(O)c(c5c(nc6cc(C)ccn65)c4c3C2=O)NC(=O)C(C)=CC=C[C@H](C)[C@H](O)[C@@H](C)[C@@H](O)[C@@H](C)[C@H](OC(C)=O)[C@H]1C | inconclusive: 37.2 µM [cytotoxic, single point] | – | active: 18.7 µM | active: 0.833 µM | inconclusive: 0.0013 µM [cytotoxic, full curve, poor fit] | inconclusive: 37.2 µM [cytotoxic, single point] | inconclusive: 23.5 µM [cytotoxic, partial curve, poor fit] | – | – | –
